Test results as given in PMC11734925.
No constants are given. Whether binding was seen depends on the method and setting. Binding seen in cells or lysates may run through a third protein. Where a sequence is shown, tags or fusion partners need not be part of it.

Target: T1, GFP-Piwi (D. melanogaster) (UniProt Q9VKM1)
T1 sequence: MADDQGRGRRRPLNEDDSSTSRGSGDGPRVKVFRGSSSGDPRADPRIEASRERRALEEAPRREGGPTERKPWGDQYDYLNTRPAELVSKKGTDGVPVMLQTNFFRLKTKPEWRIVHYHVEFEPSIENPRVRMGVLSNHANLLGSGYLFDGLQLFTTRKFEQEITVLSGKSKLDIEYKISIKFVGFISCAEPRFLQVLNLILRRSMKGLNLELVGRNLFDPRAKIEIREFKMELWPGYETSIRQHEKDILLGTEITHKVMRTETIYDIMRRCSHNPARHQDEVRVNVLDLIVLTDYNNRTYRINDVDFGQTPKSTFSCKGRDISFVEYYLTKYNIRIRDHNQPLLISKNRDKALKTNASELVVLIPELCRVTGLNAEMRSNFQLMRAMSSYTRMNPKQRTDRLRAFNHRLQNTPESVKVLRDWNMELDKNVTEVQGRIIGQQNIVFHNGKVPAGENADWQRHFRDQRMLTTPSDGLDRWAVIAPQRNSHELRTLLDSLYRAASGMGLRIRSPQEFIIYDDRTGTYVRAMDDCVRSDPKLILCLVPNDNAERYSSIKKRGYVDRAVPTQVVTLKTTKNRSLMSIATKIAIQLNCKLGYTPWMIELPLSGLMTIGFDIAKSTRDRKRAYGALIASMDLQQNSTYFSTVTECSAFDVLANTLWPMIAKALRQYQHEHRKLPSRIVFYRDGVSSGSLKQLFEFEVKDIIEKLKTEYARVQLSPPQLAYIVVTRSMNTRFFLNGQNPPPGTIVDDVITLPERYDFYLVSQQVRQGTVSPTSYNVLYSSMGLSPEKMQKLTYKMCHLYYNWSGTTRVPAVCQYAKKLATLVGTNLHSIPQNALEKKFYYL
Test: co-IP; GFP-Piwi precipitated with anti-GFP nanobody beads from embryo lysate (about 970 μg at 2 mg/ml), 90 min at 4°C; washes with 450 mM NaCl; blot with anti-GFP and anti-D1; NLS-GFP embryos as control

binding: no binding
B1: D1 (protein, UniProt P22058 1-355)
chain: MEEVAVKKRGRPSKASVGGKSSTAAVAAISPGIKKRGRPAKNKGSSGGGGQRGRPPKASKIQNDEDPEDEGEEDGDGDGSGAELANNSSPSPTKGRGRPKSSGGAGSGSGDSVKTPGSAKKRKAGRPKKHQPSDSENEDDQDEDDDGNSSIEERRPVGRPSAGSVNLNISRTGRGLGRPKKRAVESNGDGEPQVPKKRGRPPQNKSGSGGSTGYVPTGRPRGRPKANAAPVEKHEDNDDDQDDENSGEEEHSSPEKTVVAPKKRGRPSLAAGKVSKEETTKPRSRPAKNIDDDADDADSADQGQHNSKKESNDEDRAVDGTPTKGDGLKWNSDGENDANDGYVSDNYNDSESVAA
